Data from patent US20240317754A1 (priority 2020, published 2024).
For some of these results: At least one compound was matched to its structure with a doubt left. Some of these results come from one statement about several compounds together.

What was measured:
Format in all cases: cell-based
SARS-CoV-2 variants = conditions: summary statement
[1] = system: SARS-CoV-2 variant B.1.351
[2] = system: SARS-CoV-2 variant B.1.617.2

| SMILES | antiviral activity against SARS-CoV-2 variants relative to GS-441524 (SARS-CoV-2 variants) | IC50 [1] [nM] | IC50 [2] [nM] |
| --- | --- | --- | --- |
| CC(C)C(=O)OC[C@H]1O[C@@](C#N)(c2ccc3c(N)ncnn23)[C@H](O)[C@@H]1O [ATV006, ((2R,3S,4R,5R)-5-(4-aminopyrrolo[2,1-f][1,2,4]triazin-7-yl)-5-cyano-3,4-dihydroxytetrahydrofuran-2-yl)methyl isobutyrate] | 3-4 times |  |  |
| CCC(CC)COC(=O)[C@H](C)N[P@](=O)(OC[C@H]1O[C@@](C#N)(c2ccc3c(N)ncnn23)[C@H](O)[C@@H]1O)Oc1ccccc1 [RDV, remdesivir, reference compound] |  | 1350 | 957 |
| N#C[C@@]1(c2ccc3c(N)ncnn23)O[C@H](COC(=O)C2CCCCC2)[C@@H](O)[C@H]1O [ATV014, ((2R,3S,4R,5R)-5-(4-aminopyrrolo[2,1-f][1,2,4]triazin-7-yl)-5-cyano-3,4-dihydroxytetrahydrofuran-2-yl)methyl cyclohexanecarboxylate] | 3-4 times |  |  |
